This is one part of the list.

Amino acid sequences for entries named in this document (tags omitted). A change or cut given only in a name is not applied to a line headed by its entry.
UniProt Q9HBU6: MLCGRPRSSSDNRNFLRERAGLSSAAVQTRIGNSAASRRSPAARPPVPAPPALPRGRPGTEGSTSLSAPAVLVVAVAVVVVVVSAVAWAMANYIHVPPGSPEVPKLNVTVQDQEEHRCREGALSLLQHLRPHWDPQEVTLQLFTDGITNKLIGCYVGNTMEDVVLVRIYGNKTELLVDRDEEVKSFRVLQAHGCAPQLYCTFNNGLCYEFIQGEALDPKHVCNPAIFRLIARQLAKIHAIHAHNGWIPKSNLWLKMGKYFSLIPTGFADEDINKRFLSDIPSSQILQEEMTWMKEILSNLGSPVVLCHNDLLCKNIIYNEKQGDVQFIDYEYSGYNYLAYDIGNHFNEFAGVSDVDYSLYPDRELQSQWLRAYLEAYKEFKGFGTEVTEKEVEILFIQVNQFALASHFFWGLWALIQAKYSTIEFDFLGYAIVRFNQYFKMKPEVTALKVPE
UniProt Q86UY5: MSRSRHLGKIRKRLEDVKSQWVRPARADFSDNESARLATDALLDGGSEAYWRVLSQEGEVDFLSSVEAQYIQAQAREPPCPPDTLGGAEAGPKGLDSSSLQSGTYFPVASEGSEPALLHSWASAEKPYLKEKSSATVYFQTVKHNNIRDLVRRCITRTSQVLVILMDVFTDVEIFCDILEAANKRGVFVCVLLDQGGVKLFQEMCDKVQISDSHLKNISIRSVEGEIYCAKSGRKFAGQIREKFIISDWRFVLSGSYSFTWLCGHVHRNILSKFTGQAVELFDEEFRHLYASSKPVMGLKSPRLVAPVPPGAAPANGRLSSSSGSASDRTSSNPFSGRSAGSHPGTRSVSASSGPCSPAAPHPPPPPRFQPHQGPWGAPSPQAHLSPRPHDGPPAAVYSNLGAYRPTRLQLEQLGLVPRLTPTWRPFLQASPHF
UniProt Q9Y5Q0: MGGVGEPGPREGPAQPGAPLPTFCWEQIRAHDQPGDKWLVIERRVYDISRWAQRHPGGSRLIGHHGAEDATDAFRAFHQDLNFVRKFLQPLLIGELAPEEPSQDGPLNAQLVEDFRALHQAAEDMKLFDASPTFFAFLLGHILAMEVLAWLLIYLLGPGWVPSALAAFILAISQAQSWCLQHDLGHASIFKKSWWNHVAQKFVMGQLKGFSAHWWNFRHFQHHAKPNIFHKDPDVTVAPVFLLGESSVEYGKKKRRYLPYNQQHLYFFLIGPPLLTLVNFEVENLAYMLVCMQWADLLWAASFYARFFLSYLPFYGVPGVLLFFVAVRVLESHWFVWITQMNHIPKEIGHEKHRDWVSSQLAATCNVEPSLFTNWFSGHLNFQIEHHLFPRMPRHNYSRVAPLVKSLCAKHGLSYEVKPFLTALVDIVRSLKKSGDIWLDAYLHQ
UniProt Q9NZB2: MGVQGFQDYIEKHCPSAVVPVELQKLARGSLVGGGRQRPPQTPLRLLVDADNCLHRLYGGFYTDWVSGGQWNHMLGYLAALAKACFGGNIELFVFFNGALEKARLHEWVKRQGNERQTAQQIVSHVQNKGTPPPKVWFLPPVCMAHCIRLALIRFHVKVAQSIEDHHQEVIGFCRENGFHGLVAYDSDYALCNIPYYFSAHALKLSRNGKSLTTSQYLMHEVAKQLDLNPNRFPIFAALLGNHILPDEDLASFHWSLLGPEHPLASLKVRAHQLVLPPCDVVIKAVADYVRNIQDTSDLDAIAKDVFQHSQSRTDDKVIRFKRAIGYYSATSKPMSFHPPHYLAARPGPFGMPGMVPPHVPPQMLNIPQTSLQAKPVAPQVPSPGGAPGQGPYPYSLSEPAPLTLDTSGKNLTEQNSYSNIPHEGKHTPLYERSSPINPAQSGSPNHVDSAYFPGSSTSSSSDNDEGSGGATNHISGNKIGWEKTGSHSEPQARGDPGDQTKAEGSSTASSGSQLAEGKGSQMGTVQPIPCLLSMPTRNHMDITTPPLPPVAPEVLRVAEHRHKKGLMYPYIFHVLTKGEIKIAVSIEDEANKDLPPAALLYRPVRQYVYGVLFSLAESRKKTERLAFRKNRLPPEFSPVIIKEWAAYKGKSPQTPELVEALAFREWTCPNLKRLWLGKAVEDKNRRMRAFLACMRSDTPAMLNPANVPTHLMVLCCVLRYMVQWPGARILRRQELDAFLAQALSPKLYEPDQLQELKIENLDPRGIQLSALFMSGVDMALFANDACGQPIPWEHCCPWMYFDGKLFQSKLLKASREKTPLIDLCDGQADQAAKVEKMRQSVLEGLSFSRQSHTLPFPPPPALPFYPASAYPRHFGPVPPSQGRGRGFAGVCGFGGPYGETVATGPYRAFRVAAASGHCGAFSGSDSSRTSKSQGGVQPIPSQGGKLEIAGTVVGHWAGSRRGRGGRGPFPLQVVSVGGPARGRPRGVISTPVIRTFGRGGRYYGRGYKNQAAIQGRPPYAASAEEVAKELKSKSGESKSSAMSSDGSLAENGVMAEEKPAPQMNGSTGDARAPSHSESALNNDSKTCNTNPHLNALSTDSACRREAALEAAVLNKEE
UniProt Q96A26: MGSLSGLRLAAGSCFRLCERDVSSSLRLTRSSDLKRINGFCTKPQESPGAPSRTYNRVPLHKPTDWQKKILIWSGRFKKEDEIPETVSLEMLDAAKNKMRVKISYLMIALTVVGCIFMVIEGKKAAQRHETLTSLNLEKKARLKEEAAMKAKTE
UniProt Q96DF8: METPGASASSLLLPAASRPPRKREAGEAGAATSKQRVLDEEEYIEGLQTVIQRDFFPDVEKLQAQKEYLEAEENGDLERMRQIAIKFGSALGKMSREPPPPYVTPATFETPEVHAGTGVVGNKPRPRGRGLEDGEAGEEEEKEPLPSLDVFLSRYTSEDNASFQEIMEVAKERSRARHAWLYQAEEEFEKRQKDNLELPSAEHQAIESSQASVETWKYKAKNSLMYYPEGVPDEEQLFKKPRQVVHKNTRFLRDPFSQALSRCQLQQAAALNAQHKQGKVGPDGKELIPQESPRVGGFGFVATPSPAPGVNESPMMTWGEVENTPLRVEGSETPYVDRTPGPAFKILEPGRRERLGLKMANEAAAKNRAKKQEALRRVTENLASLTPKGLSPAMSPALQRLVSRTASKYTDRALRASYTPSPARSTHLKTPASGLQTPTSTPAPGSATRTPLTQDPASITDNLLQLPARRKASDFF
UniProt P10768: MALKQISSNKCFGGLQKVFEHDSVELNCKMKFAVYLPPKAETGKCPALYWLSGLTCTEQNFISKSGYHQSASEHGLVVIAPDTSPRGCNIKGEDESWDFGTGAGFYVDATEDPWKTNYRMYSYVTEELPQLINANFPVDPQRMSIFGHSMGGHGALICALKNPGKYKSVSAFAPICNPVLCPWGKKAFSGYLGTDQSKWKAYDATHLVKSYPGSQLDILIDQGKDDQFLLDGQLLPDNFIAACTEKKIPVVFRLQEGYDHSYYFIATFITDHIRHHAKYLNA
UniProt Q96E09: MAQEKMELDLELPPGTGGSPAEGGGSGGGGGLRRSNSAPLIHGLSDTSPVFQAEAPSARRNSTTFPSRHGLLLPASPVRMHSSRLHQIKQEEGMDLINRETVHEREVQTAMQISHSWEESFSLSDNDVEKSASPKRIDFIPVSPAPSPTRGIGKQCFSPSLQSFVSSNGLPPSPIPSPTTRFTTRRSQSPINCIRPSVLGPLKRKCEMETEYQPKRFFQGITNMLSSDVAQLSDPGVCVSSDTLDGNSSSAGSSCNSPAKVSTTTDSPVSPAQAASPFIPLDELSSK
UniProt Q99504: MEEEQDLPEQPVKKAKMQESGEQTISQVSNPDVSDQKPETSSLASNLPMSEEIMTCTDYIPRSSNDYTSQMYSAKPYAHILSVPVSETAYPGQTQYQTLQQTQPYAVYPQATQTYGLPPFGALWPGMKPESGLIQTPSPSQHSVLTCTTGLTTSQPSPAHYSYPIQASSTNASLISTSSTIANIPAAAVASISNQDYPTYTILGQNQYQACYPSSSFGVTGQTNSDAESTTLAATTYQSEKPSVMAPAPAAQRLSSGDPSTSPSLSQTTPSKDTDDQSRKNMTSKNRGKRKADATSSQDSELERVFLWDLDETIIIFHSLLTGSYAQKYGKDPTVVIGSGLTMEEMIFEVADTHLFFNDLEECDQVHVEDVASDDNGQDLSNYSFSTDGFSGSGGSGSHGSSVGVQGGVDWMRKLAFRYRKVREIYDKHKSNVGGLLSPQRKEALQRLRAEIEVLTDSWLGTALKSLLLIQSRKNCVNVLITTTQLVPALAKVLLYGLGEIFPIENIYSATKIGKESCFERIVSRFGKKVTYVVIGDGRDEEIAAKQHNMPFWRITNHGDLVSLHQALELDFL
UniProt Q9NUQ9: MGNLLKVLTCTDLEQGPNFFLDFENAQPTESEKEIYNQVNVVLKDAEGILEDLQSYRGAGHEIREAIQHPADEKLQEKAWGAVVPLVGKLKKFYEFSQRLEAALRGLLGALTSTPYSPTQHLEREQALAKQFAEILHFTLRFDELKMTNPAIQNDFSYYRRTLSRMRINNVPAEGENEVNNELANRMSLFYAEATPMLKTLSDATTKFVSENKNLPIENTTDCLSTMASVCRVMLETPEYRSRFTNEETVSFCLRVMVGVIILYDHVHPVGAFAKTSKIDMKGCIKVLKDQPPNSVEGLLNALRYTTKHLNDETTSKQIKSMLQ
UniProt Q9UBQ6: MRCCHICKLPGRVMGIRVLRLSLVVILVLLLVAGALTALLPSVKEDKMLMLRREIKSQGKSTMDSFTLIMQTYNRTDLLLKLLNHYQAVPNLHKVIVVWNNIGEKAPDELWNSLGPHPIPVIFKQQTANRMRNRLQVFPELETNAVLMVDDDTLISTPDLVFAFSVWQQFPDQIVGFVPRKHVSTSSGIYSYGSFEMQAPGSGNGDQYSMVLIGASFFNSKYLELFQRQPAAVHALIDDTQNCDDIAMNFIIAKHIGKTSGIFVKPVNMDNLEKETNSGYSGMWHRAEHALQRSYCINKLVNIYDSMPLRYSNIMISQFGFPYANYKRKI
UniProt Q9NWS6: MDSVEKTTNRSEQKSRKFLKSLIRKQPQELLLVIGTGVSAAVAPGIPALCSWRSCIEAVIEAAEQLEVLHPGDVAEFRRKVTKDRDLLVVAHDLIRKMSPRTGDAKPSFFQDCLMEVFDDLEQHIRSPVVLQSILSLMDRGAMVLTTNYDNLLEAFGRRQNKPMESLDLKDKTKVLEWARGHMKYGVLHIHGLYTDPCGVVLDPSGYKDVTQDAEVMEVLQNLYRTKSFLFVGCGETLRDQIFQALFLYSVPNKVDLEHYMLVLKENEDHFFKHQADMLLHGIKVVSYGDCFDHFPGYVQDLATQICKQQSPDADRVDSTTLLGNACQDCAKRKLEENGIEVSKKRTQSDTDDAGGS
UniProt P38117: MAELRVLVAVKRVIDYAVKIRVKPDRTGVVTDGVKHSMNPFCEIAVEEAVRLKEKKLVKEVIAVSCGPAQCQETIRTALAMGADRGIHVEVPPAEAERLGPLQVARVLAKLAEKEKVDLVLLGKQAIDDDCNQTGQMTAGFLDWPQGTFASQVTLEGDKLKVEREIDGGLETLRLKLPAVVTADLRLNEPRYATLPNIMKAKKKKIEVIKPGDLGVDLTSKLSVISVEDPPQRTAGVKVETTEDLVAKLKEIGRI
UniProt Q14320: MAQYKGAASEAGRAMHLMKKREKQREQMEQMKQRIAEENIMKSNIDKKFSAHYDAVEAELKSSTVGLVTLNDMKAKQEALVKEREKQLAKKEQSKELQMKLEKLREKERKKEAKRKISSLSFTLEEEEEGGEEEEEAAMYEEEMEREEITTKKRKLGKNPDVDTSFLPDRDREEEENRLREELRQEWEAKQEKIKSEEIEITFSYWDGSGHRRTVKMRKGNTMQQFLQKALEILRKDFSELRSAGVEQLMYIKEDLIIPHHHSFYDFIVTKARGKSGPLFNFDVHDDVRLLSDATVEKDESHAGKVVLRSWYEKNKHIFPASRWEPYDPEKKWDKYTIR
UniProt Q96GK7: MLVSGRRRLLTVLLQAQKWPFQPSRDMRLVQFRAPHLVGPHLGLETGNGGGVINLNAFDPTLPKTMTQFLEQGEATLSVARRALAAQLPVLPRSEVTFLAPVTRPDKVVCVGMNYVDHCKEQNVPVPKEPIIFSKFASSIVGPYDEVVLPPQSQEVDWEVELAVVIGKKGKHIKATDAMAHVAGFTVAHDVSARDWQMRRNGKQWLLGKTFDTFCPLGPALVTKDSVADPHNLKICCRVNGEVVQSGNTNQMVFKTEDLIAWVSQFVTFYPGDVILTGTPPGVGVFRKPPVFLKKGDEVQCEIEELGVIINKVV
UniProt Q96KR6: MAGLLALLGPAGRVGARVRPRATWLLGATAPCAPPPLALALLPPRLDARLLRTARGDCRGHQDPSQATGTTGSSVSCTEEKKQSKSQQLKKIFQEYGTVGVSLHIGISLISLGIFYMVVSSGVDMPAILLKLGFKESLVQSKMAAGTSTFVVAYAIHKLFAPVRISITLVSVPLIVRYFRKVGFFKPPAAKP

Compound in the first assay: C[C@H](Nc1ncnc2nc[nH]c12)c1cc2cccc(Cl)c2c(=O)n1-c1ccccc1 [duvelisib]
The experiment in a line: log2 fold change, soluble protein after heating vs DMSO (PISA); higher = thermal stabilisation; K562 lysate, 10 uM; active = over 0.2 and 3.5 SD of the protein, either way, in both replicates (recomputed). In a few lines: (§1)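 Thermal stability, expressed as log-two fold change relative to solvent controls, is given from duplicates. Crude K562 extract in PBS pH 7.4 with 1 mM MgCl2, at 1 mg/mL protein, was treated with 10 μM compound for 30 min and heated in aliquots for 3 min across 48°C-58°C. After pooling, adjustment to 0.5% NP-40 at 4°C and centrifugation at 21,000xg for 90 min, supernatant protein was measured by TMTpro 16plex LC-MS/MS with channel sums equalised.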
Turning to ETNK1 (UniProt Q9HBU6), the log2 fold change is inactive: 0.028.

Turning to FAM83A (UniProt Q86UY5), the log2 fold change was inactive: -0.047.

Turning to FADS3 (UniProt Q9Y5Q0), the log2 fold change is inactive: -0.09.

For EXOC2 (UniProt Q96KP1), the log2 fold change was inactive: -0.032.

On to FAM120A isoform 6 (UniProt Q9NZB2), for which the log2 fold change was inactive: 0.007.

With EXOSC5 (UniProt Q9NQT4), the log2 fold change was inactive: 0.005.

As to FAM162A (UniProt Q96A26), the log2 fold change is inactive: -0.012.

EZH2 isoform 2 (UniProt Q15910): the log2 fold change is inactive: 0.013.

In the case of EXOC4 (UniProt Q96A65), the log2 fold change was inactive: 0.024.

For EXOSC4 (UniProt Q9NPD3), the log2 fold change was inactive: 0.025.

Consider ESS2 (UniProt Q96DF8), for which the log2 fold change was inactive: -0.066.

For EXOC6 (UniProt Q8TAG9), the log2 fold change was inactive: 0.

Regarding FADS1, A0A0A0MR51, the log2 fold change is inactive: -0.029.

Turning to F5 (UniProt P12259), the log2 fold change is inactive: 0.033.

For FAM207A (UniProt Q9NSI2), the log2 fold change was inactive: -0.021.

Consider ESD (UniProt P10768), for which the log2 fold change was inactive: -0.007.

As to FAM122A (UniProt Q96E09), the log2 fold change was inactive: 0.019.

For the target FAM114A2 (UniProt Q9NRY5), the log2 fold change is inactive: 0.011.

For the target FAM136A (UniProt Q96C01), the log2 fold change is inactive: 0.014.

In the case of EXOC3 (UniProt O60645), the log2 fold change is inactive: -0.039.

EYA3 (UniProt Q99504): the log2 fold change was inactive: 0.009.

Take ERVK3-1, A0A0U1RQV1: the log2 fold change was inactive: -0.012.

With ERLEC1 (UniProt Q96DZ1), the log2 fold change was inactive: -0.009.

ESYT1 isoform 2 (UniProt Q9BSJ8): the log2 fold change is inactive: -0.023.

For the target FAHD1 (UniProt Q6P587), the log2 fold change was inactive: 0.067.

Regarding FAM49B (UniProt Q9NUQ9), the log2 fold change was inactive: -0.003.

For FABP5 (UniProt Q01469), the log2 fold change is inactive: -0.047.

On to FAM83D (UniProt Q9H4H8), for which the log2 fold change is inactive: -0.002.

For the target EXTL2 (UniProt Q9UBQ6), the log2 fold change was inactive: -0.001.

With FAM118A (UniProt Q9NWS6), the log2 fold change was inactive: 0.019.

Take ESYT2 (UniProt H7BXI1): the log2 fold change is inactive: 0.018.

ETFB (UniProt P38117): the log2 fold change is inactive: 0.04.

Take ERP29 (UniProt P30040): the log2 fold change is inactive: -0.005.

Consider FAM50A (UniProt Q14320), for which the log2 fold change was inactive: 0.003.

As for ERICH1 (UniProt Q86X53), the log2 fold change is inactive: 0.069.

Turning to FAHD2A (UniProt Q96GK7), the log2 fold change was inactive: -0.03.

With FAM210B (UniProt Q96KR6), the log2 fold change was inactive: 0.01.

In the case of ETF1 (UniProt P62495), the log2 fold change was inactive: 0.007.

For the target EXOSC6 (UniProt Q5RKV6), the log2 fold change was inactive: 0.031.

With EXOC7 (UniProt Q9UPT5), the log2 fold change is inactive: 0.

Compound in another assay: Cc1cc(Nc2cc(CN3CCOCC3)c3nc(C)c(Cc4ccc(Cl)cc4F)n3n2)n[nH]1 [gandotinib]
The description is as above. The essentials: as §1
For ETNK1 (UniProt Q9HBU6), the log2 fold change was inactive: -0.003.

For the target FAM83A (UniProt Q86UY5), the log2 fold change is inactive: 0.155.

As to FADS3 (UniProt Q9Y5Q0), the log2 fold change is inactive: 0.

For EXOC2 (UniProt Q96KP1), the log2 fold change is inactive: -0.185.

Regarding FAM120A isoform 6 (UniProt Q9NZB2), the log2 fold change was inactive: -0.04.

Turning to EXOSC5 (UniProt Q9NQT4), the log2 fold change was inactive: 0.006.

On to FAM162A (UniProt Q96A26), for which the log2 fold change was inactive: 0.007.

As for EZH2 isoform 2 (UniProt Q15910), the log2 fold change is inactive: -0.25.

For EXOC4 (UniProt Q96A65), the log2 fold change is inactive: -0.165.

Consider EXOSC4 (UniProt Q9NPD3), for which the log2 fold change was inactive: 0.073.

For the target ESS2 (UniProt Q96DF8), the log2 fold change was inactive: 0.159.

Take EXOC6 (UniProt Q8TAG9): the log2 fold change is inactive: -0.166.

For the target FADS1, A0A0A0MR51, the log2 fold change is active: 0.559.

As for F5 (UniProt P12259), the log2 fold change is inactive: 0.057.

As to FAM207A (UniProt Q9NSI2), the log2 fold change is inactive: 0.022.

As for ESD (UniProt P10768), the log2 fold change was inactive: 0.02.

With FAM122A (UniProt Q96E09), the log2 fold change was inactive: 0.05.

For FAM114A2 (UniProt Q9NRY5), the log2 fold change was active: 0.449.

As for FAM136A (UniProt Q96C01), the log2 fold change was inactive: -0.009.

As for EXOC3 (UniProt O60645), the log2 fold change is inactive: -0.098.

Regarding EYA3 (UniProt Q99504), the log2 fold change was inactive: 0.001.

In the case of ERVK3-1, A0A0U1RQV1, the log2 fold change was inactive: 0.152.

Take ERLEC1 (UniProt Q96DZ1): the log2 fold change was inactive: 0.007.

Consider ESYT1 isoform 2 (UniProt Q9BSJ8), for which the log2 fold change was inactive: 0.004.

Consider FAHD1 (UniProt Q6P587), for which the log2 fold change was inactive: 0.335.

Take FAM49B (UniProt Q9NUQ9): the log2 fold change was inactive: 0.023.

For the target FABP5 (UniProt Q01469), the log2 fold change was inactive: 0.032.

With FAM83D (UniProt Q9H4H8), the log2 fold change was inactive: -0.018.

With EXTL2 (UniProt Q9UBQ6), the log2 fold change was inactive: 0.106.

Consider FAM118A (UniProt Q9NWS6), for which the log2 fold change was inactive: 0.002.

With ESYT2 (UniProt H7BXI1), the log2 fold change was inactive: -0.073.

Regarding ETFB (UniProt P38117), the log2 fold change was inactive: 0.077.

With ERP29 (UniProt P30040), the log2 fold change is inactive: -0.053.

As for FAM50A (UniProt Q14320), the log2 fold change was inactive: -0.015.

For ERICH1 (UniProt Q86X53), the log2 fold change was inactive: -0.201.

As for FAHD2A (UniProt Q96GK7), the log2 fold change is inactive: 0.041.

Take FAM210B (UniProt Q96KR6): the log2 fold change was inactive: 0.09.

On to ETF1 (UniProt P62495), for which the log2 fold change is inactive: 0.01.

Consider EXOSC6 (UniProt Q5RKV6), for which the log2 fold change is inactive: 0.067.

Regarding EXOC7 (UniProt Q9UPT5), the log2 fold change was inactive: -0.067.

The record behind these values is the supplement of paper PMC10849652.
